Measurements as given in paper PMC3979106 (Structure(London, England:1993), 2014).
Positions count from the first letter of the chain named. These are yes or no findings as the source states them, for the method shown. For some of these results: Binding calls can cover weak binding; strength is not graded here.

Sequences of proteins named here, by UniProt entry; tags and fusion partners are left off. A change or cut given only in a name is not applied to a line headed by its entry.
UniProt Q9NPD8: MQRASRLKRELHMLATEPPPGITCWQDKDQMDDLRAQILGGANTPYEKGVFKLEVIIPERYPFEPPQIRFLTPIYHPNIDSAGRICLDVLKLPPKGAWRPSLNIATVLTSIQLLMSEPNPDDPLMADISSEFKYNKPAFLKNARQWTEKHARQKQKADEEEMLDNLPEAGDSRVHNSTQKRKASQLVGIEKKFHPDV

What was measured:
[1] = molecular target: T1, Human FANCL RING domain (residues 289–375) (human) (UniProt Q9NW38); test: SEC; analytical size-exclusion chromatography of FANCL RING domain incubated with an equimolar mix of Ube2T, Ube2D3 and Ube2L3; E2 bands of the shifted peak identified by SDS-PAGE and mass spectrometry; both purified
T1 sequence: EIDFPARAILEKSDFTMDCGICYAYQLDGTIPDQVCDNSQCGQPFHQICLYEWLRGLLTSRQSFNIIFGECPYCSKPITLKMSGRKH

[2] = molecular target: T1, Human FANCL RING domain (residues 289–375) (human); test: SEC; analytical size-exclusion chromatography, Superdex 75 10/300; RING domain and one E2 incubated 1 hr on ice in 0.1 M NaCl, 0.1 M Tris pH 8, 250 μM TCEP; complex read as a peak shift to the left; both purified
[3] = molecular target: T2, Human FANCL RING domain Trp341Ala (human) (UniProt Q9NW38); test: as above
T2 sequence: T1 sequence with W53A

[4] = molecular target: T3, Human FANCL RING domain Ile309Ala (human) (UniProt Q9NW38); test: as above
T3 sequence: T1 sequence with I21A

[5] = molecular target: T4, Human FANCL RING domain Tyr311Ala (human) (UniProt Q9NW38); test: as above
T4 sequence: T1 sequence with Y23A

[6] = molecular target: T1, Human FANCL RING domain (residues 289–375) (human); test: crystal structure; RING domain (289-375) and Ube2T joined on one chain by a 14-residue linker; sitting drop at 4°C, 1.6 M ammonium sulfate, 0.1 M NaCl, 0.1 M HEPES pH 7.5; 2.4 Å; RING chain X contacts Ube2T chain A, chain Y contacts chain B; both purified
[7] = molecular target: T1, Human FANCL RING domain (residues 289–375) (human); test: native gel or EMSA; native gel shift; ∼140 μM FANCL RING domain with 80–100 μM E2, 10 min on ice in 0.1 M NaCl, 0.1 M Tris pH 8, 250 μM TCEP; 4%–12% native PAGE; both purified

Measured: binding

Human Ube2T (from UniProt Q9NPD8) (enzyme)
no binding: [3] | [4] | [5]
binds: all other assays above
